Consider 61 compounds from PubChem BioAssay AID2685 (National Center for Advancing Translational Sciences (NCATS), 2010).

The other results are listed elsewhere or left out. Further columns of the screen follow, without active or inactive calls. The list favours compounds with an active or inconclusive main result. Potencies come from curve fits of mixed quality, noted in brackets.

The nature of this assay: qHTS Assay for Lipid Storage Modulators in Drosophila S3 Cells.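 As to cell number change: cells counted by Cell Tracker Red CMTPX staining in the red channel.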 The note with it: BODIPY lipid droplet fluorescence, 18-24 h; for cell number change: measured here: cell count max response, cells fed with added oleic acid. In outline: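 Laser-scanning cytometry quantifies lipid droplet accumulation (500–530 nm total intensity; droplet/cell object ratio) in oleic acid-fed (400 uM added) Drosophila S3 cells treated with a concentration series. 20 uM Triacsin C defined 100% inhibition.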

The mark [1] stands for this setting: measured here: lipid fluorescence (Fed channel) AC50, cells fed with added oleic acid.
[2] abbreviates: measured here: cell number channel AC50, cells fed with added oleic acid.

With `CCCCNCc1ccc(OCc2ccc(Cl)nc2)c(OC)c1`, the cell number change was -1.42%. For the same compound, under setting [1], the AC50 is 0.146 µM [falling, full curve, poor fit].
For `CC(c1ccccc1)N1CC(C(=O)Nc2nccs2)CC1=O` (configuration not stated), the cell number change was -23.7%. Also, the AC50 under setting [1] was 15.8 µM [rising, single point].
Turning to `COCc1c(C(=O)N2CCN(c3ccc(C(F)(F)F)cn3)CC2)oc2ccccc12`, the AC50 under setting [2] was 0.092 µM [falling, full curve, poor fit].
Consider `COc1cccc(-c2cc(C(=O)NCCCN3CCOCC3)no2)c1`, for which the cell number change was 22.6%.
For the compound `O=C(Nc1cc(F)c(Br)cc1F)c1ccc(Cl)cc1`, the cell number change was -9.42%. Further, the AC50 under setting [1] was 6.51 µM [falling, single point].
With `O=C(O)c1ccc(N2C(=O)c3ccc(C(=O)c4cccc([N+](=O)[O-])c4)cc3C2=O)cc1`, the cell number change is -9.74%.
Take `CC(C)(C)c1nc(S(=O)(=O)c2ccc(Cl)cc2)c(N2CCOCC2)o1`: the cell number change was found to be 16%. Moreover, the AC50 under setting [1] is 29.1 µM [falling, single point].
On to `COc1ccc(OC)c(CC(NC(C)=O)C(=O)NC2CCN(c3nc(C)cc(C)c3C#N)CC2)c1` (configuration not stated), for which the cell number change is 5.94%. Moreover, the AC50 under setting [1] is 0.58 µM [rising, single point].
As to `O=C(CSc1nnc(CNC(=O)c2ccco2)o1)Nc1cccc(Cl)c1`, the cell number change is -1.48%. For the same compound, the AC50 under setting [1] was 29.1 µM [rising, single point].
As to `Cc1ccc(NCCC(=O)c2ccccc2)cc1Cl`, the cell number change is -2.23%. Moreover, the AC50 under setting [1] is 0.00517 µM [falling, full curve, poor fit].
As to `Cc1cc(NC(=O)CCC(=O)N(CC(=O)NC2CCCC2)Cc2ccc3c(c2)OCO3)no1`, the cell number change turned out to be 20.1%.
Consider `CCCCCn1c(S(=O)(=O)O)nc2ccccc21`, for which the cell number change was determined as 3.67%. Under setting [2], the AC50 is 6.51 µM [falling, single point]. Further, under setting [1], the AC50 is 6.51 µM [falling, single point].
Consider `NC(=O)c1ccc(NC(=O)COC(=O)CCN=C2NS(=O)(=O)c3ccccc32)cc1`, for which the cell number change is 5.94%. Besides, under setting [1], the AC50 was 6.51 µM [falling, single point].
On to `COc1ccc(N(CC(O)Cn2c(C)nc3ccccc32)S(=O)(=O)c2ccccc2)cc1` (configuration not stated), for which the cell number change came to 15.9%. Further, the concentration at half-maximal activity (AC50) under setting [2] was 7.31 µM [rising, single point]. The half-maximal activity concentration (AC50) under setting [1] was 1.46 µM [rising, partial curve].
Consider `Cc1ccccc1N1CCN(Cc2ccc([N+](=O)[O-])o2)CC1`, for which the cell number change worked out at 15.5%.
As to `CCc1[nH]nc2c1C(c1ccc(Br)s1)C(C#N)=C(N)O2` (configuration not stated), the AC50 under setting [1] is 2.06 µM [rising, partial curve].
With `Cc1ccc(C2CC(=O)N3CN(c4ccc(Br)cc4)CSC3=C2C#N)o1` (configuration not stated), the cell number change amounted to 92%. The AC50 under setting [2] is 18.4 µM [rising, single point].
`COc1cccc(/C=N\NC(=O)C2C(=O)NCC2c2ccccc2)c1O` (configuration not stated): the cell number change is -4.83%. The AC50 under setting [1] was 6.51 µM [rising, single point].
Regarding `N=C1c2ccccc2CN1NC(=O)COc1ccc(Cl)cc1`, the cell number change was -12.6%. Further, the AC50 under setting [2] is 0.731 µM [falling, full curve, poor fit]. Moreover, the AC50 under setting [1] was 0.651 µM [falling, full curve, poor fit].
Consider `Cc1ccc(NS(=O)(=O)c2cccc(C(=O)N/N=C/c3c(C)nn(-c4ccccc4)c3N3CCCC3)c2)c(C)c1`, for which the cell number change worked out at 10.1%. The AC50 under setting [1] was 29.1 µM [rising, single point].
Consider `O=C(NC(=S)NCCc1ccccc1)c1ccco1`, for which the cell number change is -15.3%. Also, the AC50 under setting [1] was 6.51 µM [falling, single point].
As to `O=C(NC1CCCCC1)C(c1ccco1)N(Cc1cccs1)C(=O)Cn1nnc2ccccc21` (configuration not stated), the cell number change was -30.2%. Further, the AC50 under setting [2] is 29.1 µM [falling, single point].
As to `COc1ccc2[nH]c(=O)c(C(c3nnnn3C3CCCC3)N(C)C3CCCCC3)cc2c1` (configuration not stated), the cell number change is -6.95%. Also, the AC50 under setting [1] is 0.0326 µM [falling, full curve].
For `CCOC(=O)c1c(NC(=O)CNC2CCCc3ccccc32)sc(C(N)=O)c1C` (configuration not stated), the cell number change came to 19.1%. Further, the AC50 under setting [1] was 0.411 µM [falling, partial curve, poor fit].
Consider `CCOC(=O)c1c(NC(=O)CN(C)C2CCN(C)CC2)sc(C(=O)Nc2ccccc2)c1C`, for which the cell number change worked out at 15%.
Regarding `CCSC(SCC)[C@H](O)[C@@H](O)[C@H](O)[C@H](O)CO`, the cell number change is 1.63%. In addition, the AC50 under setting [1] was 6.51 µM [rising, single point].
As for `O=C(COc1ccccc1N1C(=O)C2C3C=CC(C3)C2C1=O)c1ccccc1` (configuration not stated), the cell number change was found to be 7.17%. Also, the half-maximal activity concentration (AC50) under setting [1] is 0.00517 µM [falling, full curve, poor fit].
As to `Cc1ccc(SC(C)C(=O)Nc2ccncc2)cc1` (configuration not stated), the cell number change came out at 7.74%. In addition, under setting [1], the AC50 is 29.1 µM [rising, single point].
As for `C[C@@H]1CC=C[C@H]2[C@H]1C(=O)N(Cc1ccccc1)[C@H]2c1ccc(C(F)(F)F)cc1`, the cell number change is -43.5%. The AC50 under setting [2] was 32.6 µM [falling, single point]. The AC50 under setting [1] is 29.1 µM [falling, single point].
With `Cc1ccc(-c2noc(CNC(=O)COc3ccccc3C)n2)cc1`, the cell number change was -20.4%. Besides, the concentration at half-maximal activity (AC50) under setting [1] was 29.1 µM [falling, single point].
For the compound `CCOC(=O)C1=C(C)NC(=S)N(C(C)=O)C1c1ccc(Cl)cc1` (configuration not stated), the cell number change was -44.1%. Further, the AC50 under setting [2] is 32.6 µM [falling, single point]. In addition, under setting [1], the AC50 was 29.1 µM [falling, single point].
`O=C(/C=C/c1ccc(F)cc1)Nc1ccc(S(=O)(=O)N2CCOCC2)cc1`: the cell number change was -5.79%. Moreover, the AC50 under setting [1] is 7.94 µM [falling, partial curve, poor fit].
In the case of `COc1cccc(C(=O)NCC2CCCN(C(=O)c3ccc(C=O)cc3)C2)c1OC` (configuration not stated), the cell number change was -11.8%. The AC50 under setting [1] was 35.5 µM [falling, single point].
For `Cc1cc(S(=O)(=O)N(Cc2ccccn2)Cc2ccco2)ccc1-n1cnnn1`, the cell number change is -22%. Besides, the AC50 under setting [2] was 0.00461 µM [falling, full curve, poor fit]. In addition, under setting [1], the AC50 was 3.66 µM [falling, full curve, poor fit].
Take `O=C1CC(c2ccccc2)Cc2nc(NCc3ccco3)ncc21` (configuration not stated): the cell number change was -2.62%. Besides, the AC50 under setting [1] was 5.8 µM [rising, single point].
`O=C1N(Cc2cccc(Cl)c2)C[C@@H]2C[C@@H](c3ccsc3)N3CCC[C@@]123`: the cell number change was -25%. Under setting [1], the AC50 is 4.11 µM [falling, full curve, poor fit].
Consider `CN1C(C)(C)CC(=NOC(=O)c2ccccc2)CC1(C)C`, for which the cell number change stood at 12%. The AC50 under setting [1] is 16.4 µM [rising, partial curve, poor fit].
`CC(C)Cn1c(=O)c2c(nc3n2CCCN3CCc2ccccc2)n(C)c1=O`: the cell number change was -15.2%.
Consider `Cc1cc(C)n(CC(O)COCc2ccccc2)n1` (configuration not stated), for which the cell number change is -18.5%. Besides, the AC50 under setting [2] was 0.00517 µM [falling, full curve, poor fit]. Besides, under setting [1], the AC50 is 0.0326 µM [falling, full curve, poor fit].
With `Cc1cc(C)nc(NS(=O)(=O)c2ccc(NC(=O)C(C)Oc3ccccc3F)cc2)n1` (configuration not stated), the cell number change was 2.25%. Also, the AC50 under setting [1] is 29.1 µM [rising, single point].
For `CC(C)(C)c1cccc(Cn2nnc3ccccc32)c1O`, the cell number change is -83.4%. The AC50 under setting [2] is 23.1 µM [falling, partial curve].
On to `CCC(Sc1nc2ccc(N)cc2s1)C(=O)Nc1nccs1` (configuration not stated), for which the AC50 under setting [1] was 1.16 µM [rising, full curve].
On to `COC(=O)C1=C(C(=O)OC)[C@@H]2N(C)c3ccccc3[C@@]23C[C@@H](C(=O)OC)N(C(C)=O)C3=N1`, for which the cell number change was -0.344%. Moreover, under setting [1], the AC50 is 0.82 µM [falling, single point].
Regarding `COc1ccc(CCNC(=S)c2ccccc2)cc1OC`, the cell number change is -18.1%.
Take `Brc1ccccc1C1CC(c2ccccc2)=Nc2ccccc2N1` (configuration not stated): under setting [2], the AC50 is 6.51 µM [rising, single point].
As for `Cc1ccc2c(=O)cc(C(=O)NC3CCS(=O)(=O)C3)oc2c1C` (configuration not stated), the cell number change was 14.3%. Further, the AC50 under setting [1] was 10.3 µM [falling, single point].
In the case of `COC(=O)CCCCCC(CCC(=O)OC)NC(C)=O` (configuration not stated), the cell number change was determined as 1.48%.
`Cc1cccc(C2NC(c3cccc(C)c3)C([N+](=O)[O-])C(C)(C)C2[N+](=O)[O-])c1` (configuration not stated): the AC50 under setting [1] is 2.91 µM [falling, partial curve].
Take `COc1ccc2c(Cl)c(-c3nnc(SCC(=O)c4ccccc4)n3C)sc2c1`: the cell number change came out at 11.1%. Moreover, under setting [1], the AC50 is 16.4 µM [falling, single point].
In the case of `O=C(N/N=C/c1ccccc1OCC(=O)N1CCCC1)C(=O)Nc1ccccc1F`, the cell number change was determined as 15.4%.
Consider `CCOC(=O)N1CCC(NC(=O)CCc2cn(C)c3ccccc23)CC1`, for which the cell number change was -1.14%. The AC50 under setting [1] is 29.1 µM [rising, single point].
As for `O=C(N/N=C\c1ccc(-c2ccccc2[N+](=O)[O-])o1)C1COc2cc3ccccc3cc2O1` (configuration not stated), the cell number change was -3.24%.
On the same count and under the same terms, then `COc1ccc(NS(=O)(=O)c2ccc3c(c2)oc(=O)n3C)c(OC)c1`, with 1.32%.
Turning to `CCOC(=O)c1cc(C)n(-c2c(C)n(C)n(-c3ccccc3)c2=O)c1C`, the AC50 under setting [2] is 6.51 µM [rising, single point].
Take `CCc1cccc(C)c1NC(=O)CO/N=C(\C)c1cc2ccccc2o1`: the cell number change is -12.8%.
Take `COc1ccc(S(=O)(=O)N2CCCC2CNC(=O)C(=O)NCCc2ccccc2)cc1` (configuration not stated): the cell number change was found to be 58.6%. The AC50 under setting [2] was 29.1 µM [rising, single point].
As for `Cc1cccc(NC(=O)Cc2c(F)cccc2Cl)n1`, the cell number change turned out to be 21.6%. In addition, the AC50 under setting [1] was 29.1 µM [rising, single point].
With `CN(C)CCNC(=O)c1cccc(NS(=O)(=O)c2ccc(Cl)c(Cl)c2)c1`, the cell number change amounted to 24%. Moreover, the AC50 under setting [1] is 29.1 µM [rising, single point].
Consider `CC(C)Cn1c(N)c(C(=O)COC(=O)CN2C(=O)C3CC=CCC3C2=O)c(=O)n(C)c1=O` (configuration not stated), for which the cell number change was -42%. The AC50 under setting [2] was 29.1 µM [falling, single point].
For `Brc1ccc(-c2c(-c3ccsc3)sc3ccccc23)cn1`, the cell number change came to 0.194%. The AC50 under setting [2] is 1.16 µM [falling, single point]. Moreover, the AC50 under setting [1] is 1.16 µM [falling, single point].
For `O=C(CC1Oc2ccccc2NC1=O)NC1CCCC1` (configuration not stated), the cell number change is -0.264%. In addition, the AC50 under setting [1] was 1.64 µM [falling, partial curve].
